Test results as given in patent publication US20140235848A1, “METHOD FOR MAKING A PRECURSOR OF L-FUCOSE FROM D-GLUCOSE” (Glycom A/S, priority 2011, published 2014).
At least one read-out could not be matched to a standard name with certainty. At least one compound was matched to its structure with a doubt left.

Assay: Partition studies between organic solvent and water
Format: physicochemical
Description: 1,2-O-Cyclohexylidene-6-deoxy-β-L-talofuranose (197 mg) was partitioned between water (10 mL) and methylene chloride (10 mL), layers separated and the residual amount of solutions in the separatory funnel were partitioned with extra amount of water (5 mL) and methylene chloride (5 mL). The combined organic phases were evaporated and dried in vacuo (50° C., <1 mbar, 1 hour) to give 140 mg of the title compound. The aqueous solution gave 53 mg after lyophilisation and drying in vacuo (50° C., <1 mbar, 2 hrs). Using the same procedure, partition between ethyl acetate and water provided 127 mg of the title compound from ethyl acetate phase and 70 mg from the aqueous phase.
Analogously, 1,2-O-isopropylidene-6-deoxy-β-L-talofuranose (150 mg) was partitioned between methylene chloride (24 mg) and aqueous phase (126 mg). Partition between ethyl acetate and water furnished 7 mg and 143 mg of the title compound, respectively.

yield (recovery) with the stated number of volumes of organic solvent (CH2Cl2-water) | yield (recovery) with the stated number of volumes of organic solvent (ethyl acetate-water) | SMILES
95.6% | 95.6% | C[C@H](O)[C@H]1O[C@@H]2OC(C)(C)O[C@@H]2[C@@H]1O [1,2-O-isopropylidene-6-deoxy-β-L-talofuranose]
98% | 95.5% | C[C@H](O)[C@H]1O[C@@H]2OC3(CCCCC3)O[C@@H]2[C@@H]1O [6-deoxy-1,2-O-cyclohexylidene-β-L-talofuranose]
